The target in one test is T1, Flag-tagged Elk1 (UniProt P19419).
T1 sequence: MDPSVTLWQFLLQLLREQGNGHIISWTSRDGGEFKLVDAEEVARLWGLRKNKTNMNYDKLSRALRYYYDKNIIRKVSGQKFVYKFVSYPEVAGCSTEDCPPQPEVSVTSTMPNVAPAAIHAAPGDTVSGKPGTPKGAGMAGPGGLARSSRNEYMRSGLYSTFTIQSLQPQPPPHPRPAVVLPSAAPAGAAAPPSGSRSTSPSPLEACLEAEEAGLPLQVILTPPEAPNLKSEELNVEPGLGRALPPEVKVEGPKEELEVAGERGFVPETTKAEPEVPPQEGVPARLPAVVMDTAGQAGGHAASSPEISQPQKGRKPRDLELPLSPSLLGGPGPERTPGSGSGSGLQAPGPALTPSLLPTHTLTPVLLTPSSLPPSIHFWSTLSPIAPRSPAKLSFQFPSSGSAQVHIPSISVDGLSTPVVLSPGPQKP
In words: co-IP; exogenous Co-IP: lysates of HepG2 and Hep3B cells expressing His-tagged P300 and Flag-tagged Elk1 (or only His-tagged P300); lysis buffer 1% NP-40, 0.5% sodium deoxycholate, 0.1% SDS; IP with anti-Flag antibody overnight at 4 °C, protein A/G plus-agarose beads; blot with anti-His antibody.

Sequences of proteins named here, by UniProt entry; tags and fusion partners are left off.
UniProt Q09472: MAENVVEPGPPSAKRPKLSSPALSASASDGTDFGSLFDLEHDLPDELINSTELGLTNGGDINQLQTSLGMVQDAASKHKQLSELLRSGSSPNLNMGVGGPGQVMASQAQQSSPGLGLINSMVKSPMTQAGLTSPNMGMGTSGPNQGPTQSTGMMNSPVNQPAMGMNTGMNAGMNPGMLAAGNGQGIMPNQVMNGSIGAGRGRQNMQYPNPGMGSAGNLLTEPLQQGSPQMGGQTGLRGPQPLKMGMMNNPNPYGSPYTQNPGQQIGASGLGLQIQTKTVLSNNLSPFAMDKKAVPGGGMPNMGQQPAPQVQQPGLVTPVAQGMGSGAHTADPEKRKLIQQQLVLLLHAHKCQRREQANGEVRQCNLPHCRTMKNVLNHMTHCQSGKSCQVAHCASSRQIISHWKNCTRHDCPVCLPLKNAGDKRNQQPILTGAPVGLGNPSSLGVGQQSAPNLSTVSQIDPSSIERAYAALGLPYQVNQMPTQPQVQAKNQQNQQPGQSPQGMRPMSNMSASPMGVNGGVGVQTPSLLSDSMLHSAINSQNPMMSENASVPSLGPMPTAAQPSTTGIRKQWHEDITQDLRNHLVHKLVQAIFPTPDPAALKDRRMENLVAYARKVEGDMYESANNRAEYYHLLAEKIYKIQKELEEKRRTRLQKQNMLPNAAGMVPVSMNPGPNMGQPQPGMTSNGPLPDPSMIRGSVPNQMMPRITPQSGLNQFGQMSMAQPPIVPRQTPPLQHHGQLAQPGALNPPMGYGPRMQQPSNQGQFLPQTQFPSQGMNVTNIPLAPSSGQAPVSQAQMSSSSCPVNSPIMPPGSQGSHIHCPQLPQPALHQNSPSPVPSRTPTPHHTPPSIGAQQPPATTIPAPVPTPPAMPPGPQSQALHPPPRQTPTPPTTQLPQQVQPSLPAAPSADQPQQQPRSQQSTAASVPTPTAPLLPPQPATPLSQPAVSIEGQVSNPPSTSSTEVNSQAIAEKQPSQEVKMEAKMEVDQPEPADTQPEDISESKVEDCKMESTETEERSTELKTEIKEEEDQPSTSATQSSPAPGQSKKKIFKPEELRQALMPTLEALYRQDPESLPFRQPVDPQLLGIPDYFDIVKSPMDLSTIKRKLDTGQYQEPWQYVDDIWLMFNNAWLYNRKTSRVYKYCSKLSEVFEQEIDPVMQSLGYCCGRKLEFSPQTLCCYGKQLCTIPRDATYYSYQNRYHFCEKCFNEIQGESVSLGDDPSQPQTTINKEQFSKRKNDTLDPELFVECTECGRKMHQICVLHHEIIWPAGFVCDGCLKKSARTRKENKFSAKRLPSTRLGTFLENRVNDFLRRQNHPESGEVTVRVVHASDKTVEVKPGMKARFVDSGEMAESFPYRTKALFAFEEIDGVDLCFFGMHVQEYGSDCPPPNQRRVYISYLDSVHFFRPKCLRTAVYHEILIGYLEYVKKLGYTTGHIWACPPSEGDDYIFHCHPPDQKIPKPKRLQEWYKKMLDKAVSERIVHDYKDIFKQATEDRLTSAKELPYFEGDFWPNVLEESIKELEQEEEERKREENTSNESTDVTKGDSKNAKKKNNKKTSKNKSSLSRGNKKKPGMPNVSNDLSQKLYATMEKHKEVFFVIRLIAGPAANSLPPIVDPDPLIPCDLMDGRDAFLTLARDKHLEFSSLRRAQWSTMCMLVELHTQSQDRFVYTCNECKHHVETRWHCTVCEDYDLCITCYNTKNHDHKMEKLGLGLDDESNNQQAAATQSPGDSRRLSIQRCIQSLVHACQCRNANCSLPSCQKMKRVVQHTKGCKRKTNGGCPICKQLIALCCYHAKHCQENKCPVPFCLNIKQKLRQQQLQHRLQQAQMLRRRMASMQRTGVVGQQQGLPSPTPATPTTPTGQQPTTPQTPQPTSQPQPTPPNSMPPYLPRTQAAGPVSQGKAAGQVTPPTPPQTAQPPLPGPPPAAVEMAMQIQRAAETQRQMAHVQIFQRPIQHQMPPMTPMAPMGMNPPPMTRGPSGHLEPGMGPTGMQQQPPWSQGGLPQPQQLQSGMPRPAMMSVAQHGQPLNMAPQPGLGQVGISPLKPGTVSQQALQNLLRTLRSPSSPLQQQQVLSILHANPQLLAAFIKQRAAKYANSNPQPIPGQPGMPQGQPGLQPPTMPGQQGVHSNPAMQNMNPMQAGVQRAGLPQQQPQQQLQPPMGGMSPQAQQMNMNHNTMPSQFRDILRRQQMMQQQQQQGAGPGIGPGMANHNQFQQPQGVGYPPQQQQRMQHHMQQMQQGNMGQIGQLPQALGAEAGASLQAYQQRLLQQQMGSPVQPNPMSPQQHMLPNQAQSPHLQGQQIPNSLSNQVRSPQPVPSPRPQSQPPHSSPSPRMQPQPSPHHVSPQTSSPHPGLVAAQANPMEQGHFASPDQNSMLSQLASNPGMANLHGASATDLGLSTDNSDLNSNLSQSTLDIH

In test [1] the target is T2, Elk1 (endogenous) (human (endogenous in HepG2 and Hep3B)) (UniProt P19419).
T2 sequence: T1 sequence
In words: co-IP; endogenous Co-IP in hepatoma cells; Input (10% total protein) as positive control, proteins precipitated by IgG as negative control; precipitating antibody not told.

No constants are given. Whether binding was seen depends on the method and setting. Binding seen in cells or lysates may run through a third protein. Some entries that bind do so weakly or less than the wild type. For some assays here: Sequences can lack the tags named with a protein.

For “His-tagged P300 (from UniProt Q09472 1-2414)”, the binding result with Flag-tagged Elk1 is recorded as “binds”.
“P300 (endogenous) (from UniProt Q09472 1-2414)”: in test [1], the binding entry was “binds”.

(Values after article PMC7060348.)
